Amino acid sequences for entries named in this document (tags omitted). A change or cut given only in a name is not applied to a line headed by its entry.
UniProt P31460: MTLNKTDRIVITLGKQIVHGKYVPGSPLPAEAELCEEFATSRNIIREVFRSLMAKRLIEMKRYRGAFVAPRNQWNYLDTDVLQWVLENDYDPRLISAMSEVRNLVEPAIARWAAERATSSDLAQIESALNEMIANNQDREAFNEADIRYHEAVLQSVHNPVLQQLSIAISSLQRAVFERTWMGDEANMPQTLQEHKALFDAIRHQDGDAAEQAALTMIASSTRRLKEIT

In PMC7674646, “Structural and Functional Analyses of the Transcription Repressor DgoR From Escherichia coli Reveal a Divalent Metal-Containing D-Galactonate Binding Pocket” (Frontiers in Microbiology, 2020):

Molecular target: DgoR (EcoDgoR) WT (Escherichia coli) (UniProt P31460)
Assay: EMSA
Settings: 0.5 mM D-galactonate, EMSA: 25 mM Tris-HCl pH 8.0, 50 mM KCl, 2.5 mM MgCl2, 5% glycerol, 1 mM DTT, 100 ug/mL salmon sperm DNA, 100 ng Cy5 probe in 20 ul, 25 C 20 min, native PAGE at 4 C, recombinant protein, residues 1-229, protein details: His (pET28a), label: Cy5, probe letters rebuilt from the primers and the genome

TGTAAAACGACGGCCAGTGCATTGTTCTTTTTGTGATCTAAATTGTAGTACAACAATATAAGTTTGTACTACATTACACGCACGGCAAACGCGAACGTCATCACGCTGGTACTACAAAGTTGCCGCGTTATGCATCGATCGGGGTAAAGTAGAGAAGAACATACAGAGCACAAGGACTCTCCATGACTCTCAATAAAACCGATCGCATTGTC (double strand) [dgo cis-acting element (promoter region)]
binds more weakly: binding result | binding result (EDTA-treated protein, Ca2+) | binding result (EDTA-treated protein, Mg2+) | binding result (EDTA-treated protein, Zn2+)

The exact form of at least one protein or probe is not confirmed. A weaker result is weaker than the reference pair of the same experiment.
